Library screening results

Measurements from “University of Dundee, Small-Polar-MMV Screening Library” (2021), ChEMBL document CHEMBL3988442.

A: 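Whole-cell assay for inhibitors of Mycobacterium tuberculosis growth, labelled Cornell in the record; the read-out is not stated. The concentration is filed as 10 mM, unlikely as a test dose, so the dose is not known. Higher means stronger inhibition (inferred from two other growth screens of the library). Size under these conditions: about 53,000 compounds, about 900 of them at 50% or above in at least one test.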
B: 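Assay on Mycobacterium tuberculosis, filed only as a heat shock assay from Cornell; the read-out is not stated. The concentration is filed as 10 mM, unlikely as a test dose, so the dose is not known. Direction is inferred from retests: higher values go with stronger inhibition. About 69,000 compounds were tested under these conditions; 1.4% (about 930) showed 50% or more at least once.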

Results are given as percent effect. The controls that fix the scale are not given in the record; negative values are as filed. This is an unselected part of the compounds tested. A dash means the value is not listed here; it may have been measured.

SMILES	A	B
Cc1c(F)cccc1S(=O)(=O)NCC(C)(C)CC(C)O (stereo unspecified)	-	-34.8
CC(CNC(=O)c1cc(C2CC2)on1)N1CCc2ccccc21 (stereo unspecified)	-	-1.057
O=C(NCCN1CCOCC1)c1cc(-c2ccc3c(c2)CCO3)n[nH]1	-	19.35
[H][C@]12CC[C@]([H])(CN(C(=O)Cc3c(C)nc(C)[nH]c3=O)C1)N(CC1CCC1)C2	-2.867	-0.4978
Cc1cc(-n2c(C)cn(CN(C)CC3CC3)c2=O)no1	39.64	16.26
Cn1cc(NC(=O)N2CCC(OCc3ccccc3)CC2)ccc1=O	-	15.87
O=C(O)C(F)(F)F.O=C(O)C(F)(F)F.[H][C@@]12OCCN(Cc3ccccn3)[C@@]1([H])CC[C@H]2OC	-	-34.8
Cc1cc(C)n(CC(C)CNC(=O)NCc2csc(C)n2)n1 (stereo unspecified)	-	-30.79
COc1ccc(C)cc1C(C(=O)O)N1CCN(Cc2ccccn2)CC1 (stereo unspecified)	-	-0.682
CC1CCCCN1C(=O)COCc1nc(-c2ccncc2)no1 (stereo unspecified)	13.14	-2.996
CCc1nccn1C1CCCN(C(=O)c2ccn(C)c(=O)c2)C1 (stereo unspecified)	15.69	48.56
Cc1cnn(CCNCC(O)COc2cc(Cl)ccc2Cl)c1 (stereo unspecified)	-	-19.58
Cc1nc2c(c(C)c1CC(=O)Nc1ccccc1F)c(=O)[nH]n2C	8.775	8.682
Cc1cnn(C2CCCN(C(=O)c3cc(C4CC4)on3)C2)c1 (stereo unspecified)	7.97	16.34
CCOc1ccc(NC2CCN(CC(F)(F)F)C2=O)cc1C (stereo unspecified)	-	-16.59
Cc1cc(C(=O)N2CCN(Cc3ccco3)C(CCO)C2)cc(=O)[nH]1 (stereo unspecified)	-12.27	-12.99
Cc1ccc(CNC2CCCc3c2cnn3Cc2ccccc2)s1.Cl (stereo unspecified)	-24.41	52.93
CCCn1ccnc1SCCNS(=O)(=O)c1ccccc1	33.1	7.79
Cn1nc(C#N)c2c1CN(C(=O)c1cccnc1)CCC2.O=C(O)C(F)(F)F	-8.358	-12.24
CCOc1ccc(C2C3=C(O)OCC3=Nc3nc(SC)nc(N)c32)cc1 (stereo unspecified)	23.07	5.942
Cc1nn(CCn2ccnc2-c2cc3n(n2)CCCNC3)c(C)c1Cl	3.368	-25.81
Cc1ccc(CN2CC[C@]3(C[C@H](OCc4ccccn4)CO3)C2)o1.O=C(O)C(F)(F)F.O=C(O)C(F)(F)F	22.96	-25.35
O=C(O)C(F)(F)F.[H][C@]12CC[C@@]3(N=C(CC)N(C)C3=O)[C@@]1([H])CN(Cc1ccccc1C)C2	1.881	-3.912
N#CCSCCCN1CCN(C(=O)c2ccccc2F)CC1	8.674	-29.78
CC(NC(=O)c1cccs1)C(=O)NS(=O)(=O)c1cccc(C#N)c1 (stereo unspecified)	-31.75	-3.956
O=C(O)C(F)(F)F.c1cnc(N2Cc3nccn3CC(COc3cccnc3)C2)nc1 (stereo unspecified)	15.63	-4.281
O=C(NCCc1nncn1C1CC1)c1cnn(Cc2ccccc2)c1	-	-3.403
O=C(c1cccn1Cc1cccs1)N1CCN(C(=O)C2CC2)CC1	-36.29	16.53
Cc1ccc(NC(=O)N(C)Cc2cnn(C)c2)cc1OCC(F)F	-22.56	12.98
CC(C)C1=NOC2(CCN(Cc3c[nH]c4ccccc34)CC2)C1	-	-20.8
O=C(c1ccco1)N1CCN(Cc2nc(C3CC3)no2)CC1	11.97	-4.212
Cn1ccnc1C(O)c1ccccc1N1CCN(Cc2ccsc2)CC1 (stereo unspecified)	33.13	0.038
Cc1nc2n(n1)CC(NCc1c(Cl)ccc3cccnc13)CC2 (stereo unspecified)	-	-8.207
COCCN1CCCn2cnc(CNC(=O)N(C)C)c2C1.O=C(O)C(F)(F)F.O=C(O)C(F)(F)F	33.76	0.1277
CC(C)CS(=O)(=O)CC(=O)NC(C)c1nnc2n1CCC2 (stereo unspecified)	-	-0.6929
OC1=C2C(=Nc3n[nH]c(O)c3C2c2ccco2)CCC1 (stereo unspecified)	27.79	4.07
O=C1CC(C(=O)Nc2nnc(-c3ccccn3)[nH]2)c2ccccc2N1 (stereo unspecified)	9.952	-19.53
COc1cc(C(=O)N2CCCC(n3cncn3)C2)ccc1C (stereo unspecified)	-13.36	6.149
N#CC1CCN(C(=O)NCCc2ccc(Cl)s2)CC1	10.27	-3.47
Cn1cnc2c1CCN(Cc1csc(C3CCCCC3)n1)C2	-	17.07
COc1cc(NC(=O)NCC2CCCO2)cc(OC)c1OC (stereo unspecified)	18.23	-22.5
O=C(NCc1ncc(-c2ccccc2)o1)NC1CCC(O)CC1 (stereo unspecified)	-22.12	8.788

For reference, 4 entries once more:

SMILES	A	B
O=C1CC(C(=O)Nc2nnc(-c3ccccn3)[nH]2)c2ccccc2N1 (stereo unspecified)	9.952	-19.53
COCCN1CCCn2cnc(CNC(=O)N(C)C)c2C1.O=C(O)C(F)(F)F.O=C(O)C(F)(F)F	33.76	0.1277
CCOc1ccc(C2C3=C(O)OCC3=Nc3nc(SC)nc(N)c32)cc1 (stereo unspecified)	23.07	5.942
Cn1nc(C#N)c2c1CN(C(=O)c1cccnc1)CCC2.O=C(O)C(F)(F)F	-8.358	-12.24